Assay results reported in patent US11206831B2, “Substituted oxadiazoles for combating phytopathogenic fungi” (BASF SE, priority 2015, dated 2021).
Some of these results come from one statement about several compounds together.

Key:
Format in all cases: in vivo
Phakopsora pachyrhizi [1] = assay: Protective control of soy bean rust on soy beans (glass house trial); conditions: 32 ppm, sprayed 2 days before inoculation (protective), soy bean seedlings, assessed after fourteen days; untreated plants 90%
Phakopsora pachyrhizi [2] = assay: Curative control of soy bean rust on soy beans (glass house trial); conditions: 32 ppm, sprayed after inoculation (curative), soy bean seedlings, assessed after 14 days; untreated plants 90%
Puccinia recondita [3] = assay: Curative control of brown rust on wheat (glass house trial); conditions: 63 ppm, sprayed after inoculation (curative), wheat seedlings, assessed after 8 days; untreated plants 90%
Puccinia recondita [4] = assay: Preventative control of brown rust on wheat (glass house trial); conditions: 63 ppm, sprayed seven days before inoculation (preventative), wheat seedlings, assessed after 6 days; untreated plants 90%

For `CC(CCNC(=O)c1ccc(-c2noc(C(F)(F)F)n2)cc1)=NOC(C)(C)C` [compound 36], the diseased leaf area (Phakopsora pachyrhizi [1]) was “at most 18%”.
`C#CCON=C(C)CCNC(=O)c1ccc(-c2noc(C(F)(F)F)n2)cc1` [compound 38] was tested, and the diseased leaf area (Phakopsora pachyrhizi [1]) was “at most 18%” and the diseased leaf area (Phakopsora pachyrhizi [2]) was “at most 20%”.
For `CON=C(C)CCNC(=O)c1ccc(-c2noc(C(F)(F)F)n2)cc1` [compound 33], the diseased leaf area (Phakopsora pachyrhizi [1]) was “at most 18%”, the diseased leaf area (Puccinia recondita [3]) was “at most 17%” and the diseased leaf area (Phakopsora pachyrhizi [2]) was “at most 20%”. The diseased leaf area (Puccinia recondita [4]) was “at most 9%”.
For `CCON=C(C)CCNC(=O)c1ccc(-c2noc(C(F)(F)F)n2)cc1` [compound 34], the diseased leaf area (Phakopsora pachyrhizi [1]) was “at most 18%” and the diseased leaf area (Phakopsora pachyrhizi [2]) was “at most 20%”.
`C=CCON=C(C)CCNC(=O)c1ccc(-c2noc(C(F)(F)F)n2)cc1` [compound 37] was tested, and the diseased leaf area (Phakopsora pachyrhizi [1]) was “at most 18%” and the diseased leaf area (Phakopsora pachyrhizi [2]) was “at most 20%”.
With `CC(CCNC(=O)c1ccc(-c2noc(C(F)(F)F)n2)cc1)=NOC(C)C` [compound 35] the diseased leaf area (Phakopsora pachyrhizi [1]) was “at most 18%” and the diseased leaf area (Phakopsora pachyrhizi [2]) was “at most 20%”.
With `CC(=NOC(C)(C)C)C(C)NC(=O)c1ccc(-c2noc(C(F)(F)F)n2)cc1` (centres unmarked) [compound 20] the diseased leaf area (Phakopsora pachyrhizi [1]) was “at most 18%”.
